Results on 37 targets are retold here after the supplement of paper PMC11006884.

The chains behind the UniProt entries cited, without tags or fusion partners. Where a name states a change or a piece, a line headed by the entry shows the natural chain unless it says otherwise.
UniProt P49459, whole entry, looked up: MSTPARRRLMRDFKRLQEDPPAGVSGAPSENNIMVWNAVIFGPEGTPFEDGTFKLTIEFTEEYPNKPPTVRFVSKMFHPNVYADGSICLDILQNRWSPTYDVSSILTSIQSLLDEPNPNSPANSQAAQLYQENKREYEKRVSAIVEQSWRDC
UniProt P49327, whole entry, looked up: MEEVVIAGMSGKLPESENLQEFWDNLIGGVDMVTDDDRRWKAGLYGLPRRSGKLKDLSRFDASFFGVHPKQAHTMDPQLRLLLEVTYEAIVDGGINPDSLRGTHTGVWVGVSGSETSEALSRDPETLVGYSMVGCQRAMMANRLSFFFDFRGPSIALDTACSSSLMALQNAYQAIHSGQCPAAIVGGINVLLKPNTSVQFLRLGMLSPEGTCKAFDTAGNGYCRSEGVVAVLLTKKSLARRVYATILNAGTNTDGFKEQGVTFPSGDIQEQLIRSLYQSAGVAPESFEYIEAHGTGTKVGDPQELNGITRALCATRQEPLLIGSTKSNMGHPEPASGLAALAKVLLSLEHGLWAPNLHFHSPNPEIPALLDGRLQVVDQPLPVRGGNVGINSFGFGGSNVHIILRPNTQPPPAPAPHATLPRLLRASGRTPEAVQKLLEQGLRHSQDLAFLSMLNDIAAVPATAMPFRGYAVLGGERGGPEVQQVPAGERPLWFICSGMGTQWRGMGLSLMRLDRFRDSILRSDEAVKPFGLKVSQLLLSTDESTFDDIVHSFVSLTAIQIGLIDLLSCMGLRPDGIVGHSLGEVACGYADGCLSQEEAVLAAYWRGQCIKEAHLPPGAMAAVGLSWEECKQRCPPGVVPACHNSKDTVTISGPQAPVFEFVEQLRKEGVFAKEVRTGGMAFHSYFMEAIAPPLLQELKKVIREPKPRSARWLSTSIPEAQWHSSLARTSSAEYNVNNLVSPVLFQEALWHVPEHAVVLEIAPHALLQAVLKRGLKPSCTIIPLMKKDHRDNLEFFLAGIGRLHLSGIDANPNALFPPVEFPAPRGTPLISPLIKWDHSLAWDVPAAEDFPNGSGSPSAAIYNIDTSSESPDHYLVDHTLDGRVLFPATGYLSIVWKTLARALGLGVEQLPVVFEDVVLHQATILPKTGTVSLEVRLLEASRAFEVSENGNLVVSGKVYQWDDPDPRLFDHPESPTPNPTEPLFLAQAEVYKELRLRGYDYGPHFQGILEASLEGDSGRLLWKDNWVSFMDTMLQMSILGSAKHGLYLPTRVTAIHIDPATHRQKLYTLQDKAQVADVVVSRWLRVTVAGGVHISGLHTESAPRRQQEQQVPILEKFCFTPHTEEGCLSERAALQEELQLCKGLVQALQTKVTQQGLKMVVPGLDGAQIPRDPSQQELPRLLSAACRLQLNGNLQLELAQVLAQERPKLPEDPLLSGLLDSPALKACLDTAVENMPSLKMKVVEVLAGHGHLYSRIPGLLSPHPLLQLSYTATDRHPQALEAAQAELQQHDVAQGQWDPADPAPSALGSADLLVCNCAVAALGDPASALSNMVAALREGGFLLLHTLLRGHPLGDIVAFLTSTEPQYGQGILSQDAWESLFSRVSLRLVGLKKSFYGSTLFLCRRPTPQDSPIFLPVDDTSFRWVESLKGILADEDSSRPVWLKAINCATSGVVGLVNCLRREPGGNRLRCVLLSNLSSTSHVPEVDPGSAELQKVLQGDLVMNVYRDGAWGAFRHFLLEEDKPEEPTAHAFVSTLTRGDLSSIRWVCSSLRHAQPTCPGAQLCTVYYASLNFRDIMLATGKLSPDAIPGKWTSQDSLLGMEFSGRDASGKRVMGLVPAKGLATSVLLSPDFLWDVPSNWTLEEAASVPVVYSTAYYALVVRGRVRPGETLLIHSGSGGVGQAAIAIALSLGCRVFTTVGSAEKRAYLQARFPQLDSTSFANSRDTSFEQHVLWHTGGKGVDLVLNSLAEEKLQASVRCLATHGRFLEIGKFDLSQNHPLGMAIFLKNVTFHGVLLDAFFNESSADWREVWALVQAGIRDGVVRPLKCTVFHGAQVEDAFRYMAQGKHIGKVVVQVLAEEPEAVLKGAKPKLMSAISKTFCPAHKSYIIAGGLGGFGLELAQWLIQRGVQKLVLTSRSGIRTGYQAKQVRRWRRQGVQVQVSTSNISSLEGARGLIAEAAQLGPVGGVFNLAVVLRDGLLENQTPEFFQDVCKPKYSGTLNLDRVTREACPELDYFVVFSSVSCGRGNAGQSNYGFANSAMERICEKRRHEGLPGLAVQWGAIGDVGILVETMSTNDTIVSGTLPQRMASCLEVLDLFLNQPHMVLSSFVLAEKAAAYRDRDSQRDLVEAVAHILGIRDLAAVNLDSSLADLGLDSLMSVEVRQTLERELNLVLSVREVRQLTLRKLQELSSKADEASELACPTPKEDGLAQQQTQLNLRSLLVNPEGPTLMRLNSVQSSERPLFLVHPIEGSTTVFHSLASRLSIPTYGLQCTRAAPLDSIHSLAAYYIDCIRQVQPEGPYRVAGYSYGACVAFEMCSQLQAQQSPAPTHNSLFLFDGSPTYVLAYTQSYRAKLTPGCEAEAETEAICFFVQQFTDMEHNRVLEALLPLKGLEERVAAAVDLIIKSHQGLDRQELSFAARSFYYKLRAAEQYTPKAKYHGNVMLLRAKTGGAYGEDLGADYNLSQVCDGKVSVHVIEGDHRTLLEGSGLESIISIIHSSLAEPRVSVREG
UniProt P46013: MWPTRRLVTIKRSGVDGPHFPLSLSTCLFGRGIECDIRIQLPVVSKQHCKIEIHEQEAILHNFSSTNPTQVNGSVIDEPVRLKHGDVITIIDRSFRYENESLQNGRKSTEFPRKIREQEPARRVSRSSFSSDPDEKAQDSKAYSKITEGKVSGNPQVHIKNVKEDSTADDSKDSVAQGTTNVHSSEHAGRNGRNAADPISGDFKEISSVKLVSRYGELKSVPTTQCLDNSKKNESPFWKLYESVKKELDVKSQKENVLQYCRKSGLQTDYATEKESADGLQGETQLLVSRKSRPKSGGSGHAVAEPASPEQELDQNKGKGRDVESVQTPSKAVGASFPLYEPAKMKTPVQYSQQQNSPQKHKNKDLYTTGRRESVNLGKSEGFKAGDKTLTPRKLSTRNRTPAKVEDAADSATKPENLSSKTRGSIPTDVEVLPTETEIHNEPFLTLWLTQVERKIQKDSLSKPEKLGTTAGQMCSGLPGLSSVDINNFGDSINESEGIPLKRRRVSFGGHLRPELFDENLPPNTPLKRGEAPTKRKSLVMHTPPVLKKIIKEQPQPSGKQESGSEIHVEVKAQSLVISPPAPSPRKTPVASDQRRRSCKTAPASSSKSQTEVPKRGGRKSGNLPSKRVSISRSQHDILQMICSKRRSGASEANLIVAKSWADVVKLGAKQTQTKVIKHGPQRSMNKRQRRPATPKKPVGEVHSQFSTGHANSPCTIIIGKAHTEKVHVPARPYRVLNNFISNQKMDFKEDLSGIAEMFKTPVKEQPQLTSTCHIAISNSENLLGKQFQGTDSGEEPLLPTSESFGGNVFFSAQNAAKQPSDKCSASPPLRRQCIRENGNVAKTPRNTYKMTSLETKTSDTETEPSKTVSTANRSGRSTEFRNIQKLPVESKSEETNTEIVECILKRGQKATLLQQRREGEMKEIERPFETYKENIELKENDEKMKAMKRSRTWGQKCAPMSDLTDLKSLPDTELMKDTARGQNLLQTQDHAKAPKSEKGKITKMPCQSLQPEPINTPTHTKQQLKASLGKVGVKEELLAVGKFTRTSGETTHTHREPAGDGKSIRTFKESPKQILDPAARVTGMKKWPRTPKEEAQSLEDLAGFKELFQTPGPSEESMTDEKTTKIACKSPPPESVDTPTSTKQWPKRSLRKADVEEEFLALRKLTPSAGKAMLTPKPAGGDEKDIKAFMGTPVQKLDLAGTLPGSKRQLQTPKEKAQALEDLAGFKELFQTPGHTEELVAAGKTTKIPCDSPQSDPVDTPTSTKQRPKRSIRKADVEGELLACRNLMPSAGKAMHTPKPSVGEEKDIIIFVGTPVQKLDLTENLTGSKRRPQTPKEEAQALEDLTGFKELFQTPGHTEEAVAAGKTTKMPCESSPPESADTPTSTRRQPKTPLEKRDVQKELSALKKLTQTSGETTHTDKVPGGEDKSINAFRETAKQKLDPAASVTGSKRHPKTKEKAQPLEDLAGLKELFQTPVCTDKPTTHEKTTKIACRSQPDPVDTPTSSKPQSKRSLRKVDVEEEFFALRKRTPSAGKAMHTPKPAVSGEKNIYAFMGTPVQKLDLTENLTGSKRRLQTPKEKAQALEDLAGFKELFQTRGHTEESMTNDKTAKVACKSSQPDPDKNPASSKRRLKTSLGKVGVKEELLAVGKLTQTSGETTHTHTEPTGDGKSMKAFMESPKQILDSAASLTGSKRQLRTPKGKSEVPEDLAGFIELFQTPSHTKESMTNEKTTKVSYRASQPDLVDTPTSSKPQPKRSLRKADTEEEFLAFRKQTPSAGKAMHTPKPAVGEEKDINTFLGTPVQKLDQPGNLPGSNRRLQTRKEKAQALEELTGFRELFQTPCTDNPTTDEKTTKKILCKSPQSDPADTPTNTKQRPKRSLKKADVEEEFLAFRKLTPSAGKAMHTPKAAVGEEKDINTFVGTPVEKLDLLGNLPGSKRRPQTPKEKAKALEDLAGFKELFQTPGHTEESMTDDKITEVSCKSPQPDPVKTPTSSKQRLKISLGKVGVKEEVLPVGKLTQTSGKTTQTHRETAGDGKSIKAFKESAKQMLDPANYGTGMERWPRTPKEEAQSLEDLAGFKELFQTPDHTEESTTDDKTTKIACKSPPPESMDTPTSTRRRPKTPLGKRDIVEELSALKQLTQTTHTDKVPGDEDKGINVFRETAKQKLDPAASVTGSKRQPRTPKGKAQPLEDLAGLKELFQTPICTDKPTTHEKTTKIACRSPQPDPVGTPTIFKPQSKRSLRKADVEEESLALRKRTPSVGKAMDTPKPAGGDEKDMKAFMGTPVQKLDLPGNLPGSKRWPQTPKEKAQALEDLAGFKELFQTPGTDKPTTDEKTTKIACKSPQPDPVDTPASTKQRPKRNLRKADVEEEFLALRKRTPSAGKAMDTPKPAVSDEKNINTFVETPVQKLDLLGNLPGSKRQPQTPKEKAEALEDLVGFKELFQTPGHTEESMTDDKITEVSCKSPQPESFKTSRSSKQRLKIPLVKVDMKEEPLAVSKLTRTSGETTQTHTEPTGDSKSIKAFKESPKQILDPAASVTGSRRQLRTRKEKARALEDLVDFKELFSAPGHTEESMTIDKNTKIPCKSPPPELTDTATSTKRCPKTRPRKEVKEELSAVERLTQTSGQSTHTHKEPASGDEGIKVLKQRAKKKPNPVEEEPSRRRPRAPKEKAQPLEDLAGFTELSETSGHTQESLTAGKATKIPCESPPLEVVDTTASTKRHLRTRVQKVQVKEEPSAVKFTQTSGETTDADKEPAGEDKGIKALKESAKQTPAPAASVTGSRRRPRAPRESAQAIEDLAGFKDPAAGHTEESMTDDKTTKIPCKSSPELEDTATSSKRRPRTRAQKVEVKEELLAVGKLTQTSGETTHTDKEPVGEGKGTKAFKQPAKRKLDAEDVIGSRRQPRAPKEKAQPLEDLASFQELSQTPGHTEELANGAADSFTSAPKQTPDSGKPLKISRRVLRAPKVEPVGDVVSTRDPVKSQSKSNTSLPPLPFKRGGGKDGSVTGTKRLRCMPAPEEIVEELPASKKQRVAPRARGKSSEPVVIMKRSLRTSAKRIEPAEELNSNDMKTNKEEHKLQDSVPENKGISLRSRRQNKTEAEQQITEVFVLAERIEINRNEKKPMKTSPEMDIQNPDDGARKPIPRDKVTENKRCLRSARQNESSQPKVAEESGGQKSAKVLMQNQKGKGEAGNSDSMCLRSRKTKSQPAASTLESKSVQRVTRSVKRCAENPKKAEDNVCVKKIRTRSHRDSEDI
UniProt P49585: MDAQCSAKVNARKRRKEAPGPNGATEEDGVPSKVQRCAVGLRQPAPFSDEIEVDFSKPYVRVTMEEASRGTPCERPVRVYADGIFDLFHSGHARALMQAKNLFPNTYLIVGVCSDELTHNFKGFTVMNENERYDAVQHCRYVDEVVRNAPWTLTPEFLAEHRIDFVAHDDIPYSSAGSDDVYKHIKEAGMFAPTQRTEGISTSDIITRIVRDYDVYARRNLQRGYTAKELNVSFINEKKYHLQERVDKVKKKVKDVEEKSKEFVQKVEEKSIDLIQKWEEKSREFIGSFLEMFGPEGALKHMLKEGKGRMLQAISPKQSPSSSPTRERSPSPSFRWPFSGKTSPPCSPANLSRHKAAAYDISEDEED
UniProt P47756, whole entry, looked up: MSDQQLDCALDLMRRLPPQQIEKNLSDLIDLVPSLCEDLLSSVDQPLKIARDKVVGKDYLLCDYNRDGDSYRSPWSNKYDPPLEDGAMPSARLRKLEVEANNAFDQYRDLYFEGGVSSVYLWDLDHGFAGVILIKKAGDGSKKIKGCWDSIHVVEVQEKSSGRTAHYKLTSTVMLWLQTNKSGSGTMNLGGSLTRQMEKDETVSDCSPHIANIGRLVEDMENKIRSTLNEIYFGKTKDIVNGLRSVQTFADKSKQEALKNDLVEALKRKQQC

This is a selection; strong and weak results do not stand in their true shares. This is a noisy data set.

Compound in the test: COC(=O)/C=C/c1ccccc1 [methyl cinnamate]
Description: log2 ratio of iodoacetamide-alkyne labeling of the cysteine site, DMSO over compound (competition); higher = stronger covalent engagement of the cysteine by the compound, active = 1 or more. To be noted: 500 µM; treatment time 1 h; system: HEK293T cell lysate. In short, it runs like this: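 For each cysteine, the log2 competition ratio is mean control-channel reporter intensity over mean compound-channel reporter intensity. HEK293T lysate (2 mg/mL) was exposed to vehicle or electrophile (500 µM, 1 h, ambient temperature), labelled with iodoacetamide alkyne (1 h), clicked to sCIP-TMT reagents, digested overnight with trypsin at 37 °C, streptavidin-enriched and analysed by Orbitrap Eclipse LC-MS/MS with FAIMS and FragPipe. Cysteines quantified in only one of three replicates, each with duplicate channels, were excluded.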
For the target NDUFV1 C206 (UniProt P49821), the “log2 ratio of iodoacetamide-alkyne labeling” value (“log2 ratio” below) was inactive: -0.0789.
In the case of NSF C568 (UniProt P46459) it was inactive: 0.0569; in that of UniProt P49459_C152, inactive: 0.143.
As to UniProt P49840_C262, the “log2 ratio” value was inactive: 0.308.
As to IDH3G C81 (UniProt P51553), the “log2 ratio” value is inactive: 0.374.
Take UTRN C1218 (UniProt P46939): the “log2 ratio” value was inactive: 0.0488.
Then FASN C1186 (UniProt P49327), with inactive: 0.278; and MKI67 C1251 (UniProt P46013), with inactive: 0.455.
In the case of RANBP2 C2407 (UniProt P49792) it was inactive: -0.0549; in that of ALDH7A1 C478 (UniProt P49419), inactive: 0.138; in that of SEPHS1 C31 (UniProt P49903), inactive: 0.0157.
As for IQGAP1 C660 (UniProt P46940), the “log2 ratio” value was inactive: 0.0761.
In the case of FASN C1448 (UniProt P49327) it was inactive: 0.102.
Take PCYT1A C5 (UniProt P49585): the “log2 ratio” value was inactive: 0.244.
In the case of MKI67 C2206 (UniProt P46013) it was inactive: 0.27; in that of MSH2 C822 (UniProt P43246), inactive: 0.00108; in that of METAP2 C135 (UniProt P50579), inactive: 0.291.
On to UniProt P49591_C117, for which the “log2 ratio” value is inactive: 0.0664.
In the case of CCT3 C366 (UniProt P49368) it was inactive: 0.059; in that of IRAK1 C43 (UniProt P51617), inactive: 0.169.
Consider ERF C165 (UniProt P50548), for which the “log2 ratio” value is inactive: 0.242.
Then FASN C313 (UniProt P49327), with inactive: 0.262.
As to FXR1 C77 (UniProt P51114), the “log2 ratio” value was inactive: 0.00294.
With MKI67 C903 (UniProt P46013), the “log2 ratio” value is inactive: 0.305.
Then MSH2 C176 (UniProt P43246), with inactive: -0.135; and RPL27A C70 (UniProt P46776), with inactive: 0.0341.
Then CLK1 C200 (UniProt P49759), with inactive: 0.264; and NUMB C611 (UniProt P49757), with inactive: 0.282.
In the case of METAP2 C298 (UniProt P50579) it was inactive: -0.277; in that of UTRN C3023 (UniProt P46939), inactive: 0.143.
As for MAP1B C2361 (UniProt P46821), the “log2 ratio” value is inactive: 0.179.
In the case of GMPS C4 (UniProt P49915) it was inactive: 0.247; in that of NSF C250 (UniProt P46459), inactive: 0.0683; in that of UniProt P48230_C2, inactive: 0.0901.
Regarding CAPZB C36 (UniProt P47756), the “log2 ratio” value is inactive: -0.0475.
Regarding HCFC1 C1953 (UniProt P51610), the “log2 ratio” value is inactive: -0.19.
Then AARS C773 (UniProt P49588), with inactive: 0.295.
